# Assay results: the supplement of paper PMC10689618
# The other results are listed elsewhere or left out. Single values are uncertain, as repeats are few or missing.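 Primary human fetal astrocytes engulfed labelled rat cortical synaptosomes, measured as a red/green ratio corrected for calcein live-cell signal and scaled to the plate median. Toxicity meant calcein falling over 30%; decreased phagocytosis meant below 70% of median above 5 µM.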
# Test system: Human fetal astrocytes
# Assay: loss of total cells relative to no-compound high-control median (toxicity); higher = more toxic (fewer cells)
# Settings: 5.56 µM; 24 h
row,Compound,loss of total cells [%]
1,CN(C)CCc1c[nH]c2ccc(Cn3cncn3)cc12,-12.4
2,O=Cc1ccccc1O[C@@H]1O[C@H](CO)[C@@H](O)[C@H](O)[C@H]1O,-3.7
3,CS(=O)(=O)OCCCCOS(C)(=O)=O [GT 41 X 149 Mablin CB 2041 G.T. 41 GT 2041 Mileran Myleran],8.1
4,C1CCC(C(CC2CCCCN2)C2CCCCC2)CC1 (stereo not drawn),36.6
5,NCCC(=O)c1ccccc1N,1.5
6,Nc1ccc(S(=O)(=O)Nc2ncccn2)cc1,-12.5
7,CNc1ccccc1C(=O)N1CCc2c([nH]c3ccccc23)C1=O,-4.4
8,CN(C)CCOC(=O)C(c1ccccc1)C1(O)CCCC1 (stereo not drawn),-43.2
9,CC(C)/C(O)=C1/C(=O)O[C@@H](c2ccoc2)[C@]2(C)C(O)[C@@H](O)[C@@]34OC5(C)OC67CC(C)(C(O)[C@]6(O)[C@@H](O)[C@]3(O5)C12)[C@H](CC(=O)O)[C@]74C (stereo partly drawn),44.3
10,CC1Cc2ccccc2N1NC(=O)c1ccc(Cl)c(S(N)(=O)=O)c1 (stereo not drawn),-16
11,O=C(/C=C/C=C/c1ccc2c(c1)OCO2)N1CCCCC1,-11.1
12,C1N2CN3CN1CN(C2)C3,-5.6
13,CC1(C)[C@@H](O)CC[C@]2(C)[C@H]3C(=O)C=C4[C@H]5C[C@@](C)(C(=O)O)CC[C@]5(C)CC[C@@]4(C)[C@]3(C)CC[C@@H]12 [18alpha-GLYCYRRHETINIC ACID],-6.6
14,COc1ccc([C@H]2Oc3cc(OC)cc(OC)c3C[C@H]2O)cc1,30.5
15,O=c1[nH]cnc2nc[nH]c12,2.2
16,CC[C@H]1OC(=O)C[C@@H](O)[C@H](C)[C@@H](O[C@@H]2O[C@H](C)[C@@H](O)[C@H](N(C)C)[C@H]2O)[C@@H](CCN2C[C@H](C)C[C@H](C)C2)C[C@@H](C)C(=O)/C=C/C(C)=C/[C@@H]1CO[C@@H]1O[C@H](C)[C@@H](O)[C@@H](OC)[C@H]1OC,-1.9
17,C[C@H]1O[C@@H](O[C@H]2[C@@H](O)C[C@H](O[C@H]3[C@@H](O)C[C@H](O[C@H]4CC[C@@]5(C)[C@H](CC[C@@H]6[C@@H]5C[C@@H](O)[C@]5(C)[C@@H](C7=CC(=O)OC7)CC[C@]65O)C4)O[C@@H]3C)O[C@@H]2C)C[C@H](O)[C@@H]1O,30
18,CCCCOC(=O)c1ccc(O)cc1,-13
19,COc1ccc(/C=C/C(=O)O)cc1OC,-13
20,Cc1cc(-n2c(=O)[nH]c(=O)n(C)c2=O)ccc1Oc1ccc(SC(F)(F)F)cc1,-9.9

row,Compound,loss of total cells [%]
1,COc1ccc(-c2cc(=O)c3c(O)c(OC)c(OC)c(OC)c3o2)cc1,2.2
2,COc1ccc2oc3ccccc3c(=O)c2c1,5.8
3,Cc1cc2nc3c(=O)[nH]c(=O)nc-3n(C[C@H](O)[C@H](O)[C@H](O)CO)c2cc1C,21.9
4,C#C[C@]1(OC(C)=O)CC[C@H]2[C@@H]3CCC4=C[C@@H](OC(C)=O)CC[C@@H]4[C@H]3CC[C@@]21C,7.6
5,NCCCC(=O)O,8.7
6,"CCCCS(=N)(=O)CCC(N)C(=O)O (racemic) [DL-Buthionine-[S,R]-sulfoximine]",-3.7
7,CC(=O)O[C@@H]1CC(=O)[C@@]2(C)C(CC(=O)[C@]3(C)C2CC[C@@]2(C)[C@H](c4ccoc4)OC(=O)C4OC423)C1(C)C (stereo partly drawn),45.8
8,COc1cc(C(C)=O)cc(OC)c1O,8
9,NCC(O)CC(=O)O (stereo not drawn),1.4
10,CC(=O)O[C@H]1CC[C@@]2(C)C(=CC=C3[C@@H]4CC[C@H]([C@H](C)/C=C/[C@H](C)C(C)C)[C@@]4(C)CC[C@@H]32)C1,-5.3
11,C[C@H](CCC(=O)O)[C@H]1CC[C@H]2[C@@H]3[C@H](O)C[C@@H]4C[C@H](O)CC[C@]4(C)[C@H]3CC[C@]12C,-7.7
12,CC(=O)[C@@]1(O)CC[C@H]2[C@@H]3C=C(Cl)C4=CC(=O)[C@@H]5C[C@@H]5[C@]4(C)[C@H]3CC[C@@]21C,6.5
13,COc1cc(-c2cc(=O)c3c(O)c(OC)c(OC)c(OC)c3o2)cc(OC)c1OC,11.7
14,OC[C@H]1O[C@@H](n2cnc3c(NCc4ccco4)ncnc32)[C@H](O)[C@@H]1O,11
15,C=C1C2CC[C@@]3(C)[C@H](c4ccoc4)OC(=O)C[C@]13O[C@H]1CC(=O)C(C)(C)[C@H](C(O)C(=O)OC)[C@@]21C (stereo partly drawn),-15.3
16,CCN(CC)Cc1cc(Nc2ccnc3cc(Cl)ccc23)ccc1O,11.7
17,COc1ccc(-c2cc(=O)c3c(OC)cc(OC)cc3o2)cc1,7.3
18,Cc1cc(=O)n(-c2ccccc2)n1C,2.7
19,COc1ccc(-c2cc(=O)c3c(O)cc(O)cc3o2)cc1,10.7

# Same assay, conditions: 11.11 µM; 24 h
row,Compound,loss of total cells [%]
1,CN(C)CCc1c[nH]c2ccc(Cn3cncn3)cc12,-11.5
2,O=Cc1ccccc1O[C@@H]1O[C@H](CO)[C@@H](O)[C@H](O)[C@H]1O,13.5
3,CS(=O)(=O)OCCCCOS(C)(=O)=O [GT 41 X 149 Mablin CB 2041 G.T. 41 GT 2041 Mileran Myleran],-18
4,C1CCC(C(CC2CCCCN2)C2CCCCC2)CC1 (stereo not drawn),42.3
5,NCCC(=O)c1ccccc1N,12.2
6,Nc1ccc(S(=O)(=O)Nc2ncccn2)cc1,-10.1
7,CNc1ccccc1C(=O)N1CCc2c([nH]c3ccccc23)C1=O,-2
8,CN(C)CCOC(=O)C(c1ccccc1)C1(O)CCCC1 (stereo not drawn),-16.4
9,CC(C)/C(O)=C1/C(=O)O[C@@H](c2ccoc2)[C@]2(C)C(O)[C@@H](O)[C@@]34OC5(C)OC67CC(C)(C(O)[C@]6(O)[C@@H](O)[C@]3(O5)C12)[C@H](CC(=O)O)[C@]74C (stereo partly drawn),-0.6
10,CC1Cc2ccccc2N1NC(=O)c1ccc(Cl)c(S(N)(=O)=O)c1 (stereo not drawn),18.2
11,O=C(/C=C/C=C/c1ccc2c(c1)OCO2)N1CCCCC1,-0.3
12,C1N2CN3CN1CN(C2)C3,-1.4
13,CC1(C)[C@@H](O)CC[C@]2(C)[C@H]3C(=O)C=C4[C@H]5C[C@@](C)(C(=O)O)CC[C@]5(C)CC[C@@]4(C)[C@]3(C)CC[C@@H]12 [18alpha-GLYCYRRHETINIC ACID],-3.4
14,COc1ccc([C@H]2Oc3cc(OC)cc(OC)c3C[C@H]2O)cc1,3.9
15,O=c1[nH]cnc2nc[nH]c12,6.1
16,CC[C@H]1OC(=O)C[C@@H](O)[C@H](C)[C@@H](O[C@@H]2O[C@H](C)[C@@H](O)[C@H](N(C)C)[C@H]2O)[C@@H](CCN2C[C@H](C)C[C@H](C)C2)C[C@@H](C)C(=O)/C=C/C(C)=C/[C@@H]1CO[C@@H]1O[C@H](C)[C@@H](O)[C@@H](OC)[C@H]1OC,-21.3
17,C[C@H]1O[C@@H](O[C@H]2[C@@H](O)C[C@H](O[C@H]3[C@@H](O)C[C@H](O[C@H]4CC[C@@]5(C)[C@H](CC[C@@H]6[C@@H]5C[C@@H](O)[C@]5(C)[C@@H](C7=CC(=O)OC7)CC[C@]65O)C4)O[C@@H]3C)O[C@@H]2C)C[C@H](O)[C@@H]1O,48.7
18,CCCCOC(=O)c1ccc(O)cc1,43.2
19,COc1ccc(/C=C/C(=O)O)cc1OC,46.5
20,Cc1cc(-n2c(=O)[nH]c(=O)n(C)c2=O)ccc1Oc1ccc(SC(F)(F)F)cc1,22.6

row,Compound,loss of total cells [%]
1,COc1ccc(-c2cc(=O)c3c(O)c(OC)c(OC)c(OC)c3o2)cc1,2
2,COc1ccc2oc3ccccc3c(=O)c2c1,-7.9
3,Cc1cc2nc3c(=O)[nH]c(=O)nc-3n(C[C@H](O)[C@H](O)[C@H](O)CO)c2cc1C,3.9
4,C#C[C@]1(OC(C)=O)CC[C@H]2[C@@H]3CCC4=C[C@@H](OC(C)=O)CC[C@@H]4[C@H]3CC[C@@]21C,1.3
5,NCCCC(=O)O,0.4
6,"CCCCS(=N)(=O)CCC(N)C(=O)O (racemic) [DL-Buthionine-[S,R]-sulfoximine]",18.2
7,CC(=O)O[C@@H]1CC(=O)[C@@]2(C)C(CC(=O)[C@]3(C)C2CC[C@@]2(C)[C@H](c4ccoc4)OC(=O)C4OC423)C1(C)C (stereo partly drawn),-2.6
8,COc1cc(C(C)=O)cc(OC)c1O,-0.4
9,NCC(O)CC(=O)O (stereo not drawn),2.1
10,CC(=O)O[C@H]1CC[C@@]2(C)C(=CC=C3[C@@H]4CC[C@H]([C@H](C)/C=C/[C@H](C)C(C)C)[C@@]4(C)CC[C@@H]32)C1,35.5
11,C[C@H](CCC(=O)O)[C@H]1CC[C@H]2[C@@H]3[C@H](O)C[C@@H]4C[C@H](O)CC[C@]4(C)[C@H]3CC[C@]12C,-2.6
12,CC(=O)[C@@]1(O)CC[C@H]2[C@@H]3C=C(Cl)C4=CC(=O)[C@@H]5C[C@@H]5[C@]4(C)[C@H]3CC[C@@]21C,-16.3
13,COc1cc(-c2cc(=O)c3c(O)c(OC)c(OC)c(OC)c3o2)cc(OC)c1OC,2.7
14,OC[C@H]1O[C@@H](n2cnc3c(NCc4ccco4)ncnc32)[C@H](O)[C@@H]1O,29.1
15,C=C1C2CC[C@@]3(C)[C@H](c4ccoc4)OC(=O)C[C@]13O[C@H]1CC(=O)C(C)(C)[C@H](C(O)C(=O)OC)[C@@]21C (stereo partly drawn),1.3
16,CCN(CC)Cc1cc(Nc2ccnc3cc(Cl)ccc23)ccc1O,3.1
17,COc1ccc(-c2cc(=O)c3c(OC)cc(OC)cc3o2)cc1,4.1
18,Cc1cc(=O)n(-c2ccccc2)n1C,-17.2
19,COc1ccc(-c2cc(=O)c3c(O)cc(O)cc3o2)cc1,42.6
